Results are given in words; binding and its absence hold for the method and conditions named. In cells and extracts the contact can be indirect. Some results given as binding are weak or reduced against the parent protein; the word gives no strength. For some assays here: Sequences can lack the tags named with a protein.

The chains behind the UniProt entries cited, without tags or fusion partners. Residues count along the entry.
UniProt A2ARV4, residues 26-4660: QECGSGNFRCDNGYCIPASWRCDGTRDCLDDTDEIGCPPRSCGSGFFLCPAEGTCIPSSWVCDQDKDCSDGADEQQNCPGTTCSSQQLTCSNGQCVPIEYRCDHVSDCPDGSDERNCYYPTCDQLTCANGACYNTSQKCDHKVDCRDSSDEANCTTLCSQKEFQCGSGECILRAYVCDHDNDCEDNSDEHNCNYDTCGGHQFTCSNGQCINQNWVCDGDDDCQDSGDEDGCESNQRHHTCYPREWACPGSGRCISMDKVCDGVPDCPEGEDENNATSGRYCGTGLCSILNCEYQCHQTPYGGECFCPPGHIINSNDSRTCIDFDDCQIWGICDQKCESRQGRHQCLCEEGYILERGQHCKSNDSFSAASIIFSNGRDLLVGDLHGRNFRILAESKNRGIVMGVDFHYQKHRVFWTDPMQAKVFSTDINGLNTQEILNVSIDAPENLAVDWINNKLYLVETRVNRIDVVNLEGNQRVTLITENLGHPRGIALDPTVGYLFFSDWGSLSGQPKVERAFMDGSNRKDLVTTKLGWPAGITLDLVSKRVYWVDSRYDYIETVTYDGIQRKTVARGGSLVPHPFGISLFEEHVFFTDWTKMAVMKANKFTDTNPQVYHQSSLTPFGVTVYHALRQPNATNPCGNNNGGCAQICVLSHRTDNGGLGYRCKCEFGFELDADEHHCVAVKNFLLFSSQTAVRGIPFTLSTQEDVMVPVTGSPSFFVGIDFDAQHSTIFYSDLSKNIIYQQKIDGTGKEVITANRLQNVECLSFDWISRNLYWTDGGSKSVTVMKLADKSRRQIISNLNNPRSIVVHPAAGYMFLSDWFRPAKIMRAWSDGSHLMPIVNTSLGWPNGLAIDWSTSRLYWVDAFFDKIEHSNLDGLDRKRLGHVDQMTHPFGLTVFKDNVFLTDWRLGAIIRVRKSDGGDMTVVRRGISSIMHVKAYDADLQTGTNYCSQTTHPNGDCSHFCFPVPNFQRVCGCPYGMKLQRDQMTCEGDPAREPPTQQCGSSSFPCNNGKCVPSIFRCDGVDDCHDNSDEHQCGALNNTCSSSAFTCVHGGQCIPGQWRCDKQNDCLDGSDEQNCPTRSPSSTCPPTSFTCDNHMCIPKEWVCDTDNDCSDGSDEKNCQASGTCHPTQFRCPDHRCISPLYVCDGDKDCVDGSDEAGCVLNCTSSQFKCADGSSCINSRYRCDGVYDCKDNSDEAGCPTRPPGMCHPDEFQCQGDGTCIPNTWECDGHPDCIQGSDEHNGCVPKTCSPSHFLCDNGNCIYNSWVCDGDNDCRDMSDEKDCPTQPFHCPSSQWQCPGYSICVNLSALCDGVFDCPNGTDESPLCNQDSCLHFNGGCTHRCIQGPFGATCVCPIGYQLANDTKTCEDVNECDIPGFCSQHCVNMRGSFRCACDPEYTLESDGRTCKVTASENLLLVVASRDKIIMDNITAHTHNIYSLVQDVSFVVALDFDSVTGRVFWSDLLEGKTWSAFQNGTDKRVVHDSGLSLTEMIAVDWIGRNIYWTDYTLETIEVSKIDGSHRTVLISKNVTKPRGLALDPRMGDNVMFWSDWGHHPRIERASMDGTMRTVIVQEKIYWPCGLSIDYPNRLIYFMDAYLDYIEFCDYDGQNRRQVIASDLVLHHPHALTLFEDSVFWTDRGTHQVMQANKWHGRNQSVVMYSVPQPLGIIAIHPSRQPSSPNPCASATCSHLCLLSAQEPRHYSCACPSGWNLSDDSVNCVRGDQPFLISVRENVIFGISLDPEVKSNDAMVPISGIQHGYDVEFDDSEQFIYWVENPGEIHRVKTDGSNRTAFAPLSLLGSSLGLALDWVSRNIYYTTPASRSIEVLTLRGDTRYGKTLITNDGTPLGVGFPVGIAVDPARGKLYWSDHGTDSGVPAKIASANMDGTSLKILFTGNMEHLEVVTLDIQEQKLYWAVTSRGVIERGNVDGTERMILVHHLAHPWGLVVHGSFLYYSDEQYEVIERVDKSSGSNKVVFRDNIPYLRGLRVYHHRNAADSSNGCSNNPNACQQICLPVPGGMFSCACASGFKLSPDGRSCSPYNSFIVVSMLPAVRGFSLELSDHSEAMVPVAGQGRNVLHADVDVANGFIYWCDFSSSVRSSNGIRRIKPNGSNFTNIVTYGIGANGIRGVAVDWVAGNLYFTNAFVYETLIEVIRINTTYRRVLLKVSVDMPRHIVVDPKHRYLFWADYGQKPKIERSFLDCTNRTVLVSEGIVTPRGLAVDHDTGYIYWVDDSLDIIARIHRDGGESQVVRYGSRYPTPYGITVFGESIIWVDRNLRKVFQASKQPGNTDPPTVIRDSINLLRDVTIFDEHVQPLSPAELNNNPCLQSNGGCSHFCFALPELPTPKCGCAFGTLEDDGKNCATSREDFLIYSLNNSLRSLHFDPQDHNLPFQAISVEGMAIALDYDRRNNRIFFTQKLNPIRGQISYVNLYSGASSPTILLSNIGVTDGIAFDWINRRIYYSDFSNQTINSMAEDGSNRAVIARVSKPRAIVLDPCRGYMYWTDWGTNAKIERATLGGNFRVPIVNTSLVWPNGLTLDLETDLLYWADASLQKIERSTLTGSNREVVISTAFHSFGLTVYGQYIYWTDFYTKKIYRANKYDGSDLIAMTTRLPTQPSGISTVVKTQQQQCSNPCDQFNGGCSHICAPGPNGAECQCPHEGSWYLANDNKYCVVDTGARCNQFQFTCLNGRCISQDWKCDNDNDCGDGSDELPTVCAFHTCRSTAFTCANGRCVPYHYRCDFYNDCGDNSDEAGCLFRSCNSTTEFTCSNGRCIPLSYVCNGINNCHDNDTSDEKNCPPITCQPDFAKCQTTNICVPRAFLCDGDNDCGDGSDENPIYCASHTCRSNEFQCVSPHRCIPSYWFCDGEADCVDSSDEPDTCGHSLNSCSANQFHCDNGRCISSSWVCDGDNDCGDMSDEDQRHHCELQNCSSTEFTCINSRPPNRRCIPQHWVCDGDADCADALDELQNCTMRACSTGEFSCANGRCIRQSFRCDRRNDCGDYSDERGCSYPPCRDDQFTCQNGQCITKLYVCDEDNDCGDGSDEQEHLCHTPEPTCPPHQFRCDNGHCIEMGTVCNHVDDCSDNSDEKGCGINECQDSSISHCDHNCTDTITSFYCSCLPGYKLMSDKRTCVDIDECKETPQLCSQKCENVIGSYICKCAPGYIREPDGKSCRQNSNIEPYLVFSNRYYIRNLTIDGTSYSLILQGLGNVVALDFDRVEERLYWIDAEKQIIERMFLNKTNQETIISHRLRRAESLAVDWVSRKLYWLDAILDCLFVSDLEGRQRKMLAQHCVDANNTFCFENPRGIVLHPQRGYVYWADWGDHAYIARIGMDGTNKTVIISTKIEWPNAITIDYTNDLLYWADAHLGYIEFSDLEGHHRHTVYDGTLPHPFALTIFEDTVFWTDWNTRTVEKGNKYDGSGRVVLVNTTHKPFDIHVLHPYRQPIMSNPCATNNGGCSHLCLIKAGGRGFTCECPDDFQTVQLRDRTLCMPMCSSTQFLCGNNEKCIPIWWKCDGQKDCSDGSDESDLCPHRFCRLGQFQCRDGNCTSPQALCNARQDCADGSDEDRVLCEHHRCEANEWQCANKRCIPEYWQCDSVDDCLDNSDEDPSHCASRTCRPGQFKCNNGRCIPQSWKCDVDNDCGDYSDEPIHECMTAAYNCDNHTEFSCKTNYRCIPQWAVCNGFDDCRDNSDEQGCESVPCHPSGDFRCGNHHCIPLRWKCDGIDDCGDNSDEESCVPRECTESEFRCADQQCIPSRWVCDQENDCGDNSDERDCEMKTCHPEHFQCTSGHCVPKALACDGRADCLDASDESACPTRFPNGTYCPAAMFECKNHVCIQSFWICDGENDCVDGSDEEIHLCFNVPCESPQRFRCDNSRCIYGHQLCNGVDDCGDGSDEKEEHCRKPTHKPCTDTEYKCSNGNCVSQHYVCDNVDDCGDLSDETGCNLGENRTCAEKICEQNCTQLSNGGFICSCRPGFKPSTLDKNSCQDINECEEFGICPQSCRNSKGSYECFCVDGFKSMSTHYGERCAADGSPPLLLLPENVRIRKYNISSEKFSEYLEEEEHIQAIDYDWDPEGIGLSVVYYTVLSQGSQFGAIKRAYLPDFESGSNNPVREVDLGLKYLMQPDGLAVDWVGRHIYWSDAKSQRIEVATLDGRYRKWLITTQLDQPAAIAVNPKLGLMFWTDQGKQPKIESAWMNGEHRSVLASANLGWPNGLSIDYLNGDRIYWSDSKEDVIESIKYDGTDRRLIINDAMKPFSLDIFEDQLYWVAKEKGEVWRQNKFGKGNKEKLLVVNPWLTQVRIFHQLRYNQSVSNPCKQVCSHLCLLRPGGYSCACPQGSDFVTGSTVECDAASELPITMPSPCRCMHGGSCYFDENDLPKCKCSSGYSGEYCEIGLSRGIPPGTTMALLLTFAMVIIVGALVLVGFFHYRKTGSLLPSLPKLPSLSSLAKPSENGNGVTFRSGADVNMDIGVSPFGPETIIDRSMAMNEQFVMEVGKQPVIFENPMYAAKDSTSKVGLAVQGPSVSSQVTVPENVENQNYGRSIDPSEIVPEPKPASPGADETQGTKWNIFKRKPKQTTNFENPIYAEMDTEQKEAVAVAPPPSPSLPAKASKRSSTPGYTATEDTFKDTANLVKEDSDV

This note sets out measurements from article PMC11809382.

Experiment [1] addresses T1, glutathione S-transferase (GST)-labeled VDBP protein (UniProt P21614).
T1 sequence: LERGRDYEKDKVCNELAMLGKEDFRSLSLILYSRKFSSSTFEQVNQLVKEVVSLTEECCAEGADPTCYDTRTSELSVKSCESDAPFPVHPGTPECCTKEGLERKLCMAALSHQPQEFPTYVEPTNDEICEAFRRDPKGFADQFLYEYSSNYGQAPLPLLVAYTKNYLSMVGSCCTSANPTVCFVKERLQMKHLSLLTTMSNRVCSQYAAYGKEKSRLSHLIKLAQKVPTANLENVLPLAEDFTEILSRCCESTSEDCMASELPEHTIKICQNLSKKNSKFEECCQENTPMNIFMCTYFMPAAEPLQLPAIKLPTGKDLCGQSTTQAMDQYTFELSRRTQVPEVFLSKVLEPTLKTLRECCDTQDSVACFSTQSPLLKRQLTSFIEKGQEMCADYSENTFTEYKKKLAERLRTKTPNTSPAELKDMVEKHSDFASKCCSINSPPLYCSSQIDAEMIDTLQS
In words: pull-down; GST-labeled VDBP protein as bait, primary mouse neuron lysate; only the target purified.

The target in experiment [2] is megalin (low-density-lipoprotein-receptor-related protein 2, LRP2), neuronal receptor (mouse (endogenous in primary mouse neurons)) (UniProt A2ARV4). Kind of experiment: proximity ligation; endogenous VDBP and megalin on MAP2-positive primary mouse neurons.

For the molecule “megalin (low-density-lipoprotein-receptor-related protein 2, LRP2), neuronal receptor (from UniProt A2ARV4 26-4660)”, the binding result in experiment [1] is reported as “binds”.

B1: vitamin D binding protein (VDBP), endogenous (ligand, UniProt P21614 17-476)
chain: T1 sequence
Take B1: the binding entry in experiment [2] is given as “binds”.
